Source: PubChem BioAssay AID226 (DTP/NCI, 2004)
The list does not hold the whole screen: it is rich in T/C values a quarter to a half above the control, in often repeated tests (any T/C) and in doses without a T/C. Further doses and runs are listed elsewhere. T/C: endpoint of the treated group in % of that of the vehicle group. Some doses have a count of surviving animals in place of a T/C: the source holds a T/C of zero for them, seemingly a mark for toxic or unscored doses. Some survivor counts are full or nearly so, which does not show that the dose was tolerated: survival well below the control is almost never listed, so the zero probably covers shortened survival too. Survivors were counted at the toxicity check, usually on the fifth day, unless a day is given; later deaths do not show. Schedule codes are those of the source, read here as Q, the interval in days (D) or hours (H), X, the number of doses. Some entries hold several experiments; the values are given in rising order. Where survival is the endpoint, this PubChem deposit counts one and a half times the control or more as active, and values a quarter to a half above the control carry no call in these data; other NCI protocols may use other cut-offs. Some T/C values carry the count of animals alive at the toxicity check (mostly the fifth day); where none is given, no animal had died by that day. Marks such as (2×) give the number of equal values in this list.

Tested on: B6C3F1 mice, intracerebral ependymoblastoma, median survival T/C
Experiment: NCI In Vivo Anticancer Drug Screen. Data for tumor model Ependymoblastoma (intracerebral) in B6C3F1 mice
Details: T/C endpoint: median survival time, higher T/C = longer survival
Method: The antitumor activity of compounds was measured in mice bearing transplantable tumors. Survival or tumor size were measured and the results are expressed as the measurement made in the treated group (T) divided by the measurement made in the vehicle treated control group (C). The tumor model used in this assay is Ependymoblastoma (intracerebral) in B6C3F1 mice

[1] = dose: 16.0 mg/kg/injection, schedule: Q01DX005 (ip), vehicle: saline with Tween-80
[2] = dose: 64.0 mg/kg/injection, schedule: Q01DX001 (ip), vehicle: saline with Tween-80
[3] = dose: 64.0 mg/kg/injection, schedule: Q01DX001 (ip), vehicle: saline
[4] = dose: 512.0 mg/kg/injection, schedule: Q01DX005 (ip), vehicle: Klucel (hydroxypropylcellulose) (HPC)
[5] = dose: 8.0 mg/kg/injection, schedule: Q01DX005 (ip), vehicle: saline
[6] = dose: 32.0 mg/kg/injection, schedule: Q01DX001 (ip), vehicle: saline
[7] = dose: 128.0 mg/kg/injection, schedule: Q01DX001 (ip), vehicle: saline
[8] = dose: 256.0 mg/kg/injection, schedule: Q01DX001 (ip), vehicle: saline
[9] = dose: 40.0 mg/kg/injection, schedule: Q01DX005 (ip), vehicle: Klucel (hydroxypropylcellulose) (HPC)
[10] = dose: 256.0 mg/kg/injection, schedule: Q01DX005 (ip), vehicle: saline with Tween-80

O=NN(CCCl)C(=O)NCCCl
T/C (dose: 2.0 mg/kg/injection, schedule: Q01DX001 (ip), vehicle: saline with Tween-80): 97, 100, 105 (2×), 109, 121 % of control | T/C (dose: 2.0 mg/kg/injection, schedule: Q01DX005 (ip), vehicle: Klucel (hydroxypropylcellulose) (HPC)): 98, 105, 107, 110, 111 (2×), 112, 114, 116 (3×), 117, 119, 120, 122 (2×), 122 [8 of 10 alive], 132, 159 % of control | T/C (dose: 2.5 mg/kg/injection, schedule: Q01DX005 (ip), vehicle: saline with Tween-80): 126 % of control | T/C (dose: 4.0 mg/kg/injection, schedule: Q01DX001 (ip), vehicle: saline with Tween-80): 98, 105, 110 [9 of 10 alive], 111, 117, 121 % of control | T/C (dose: 4.0 mg/kg/injection, schedule: Q01DX005 (ip), vehicle: Klucel (hydroxypropylcellulose) (HPC)): 107, 116, 117, 129 [9 of 10 alive], 132, 138, 146, 152, 153 [9 of 10 alive], 154, 160, 161, 163, 165 (2×), 170, 182, 185 [9 of 10 alive], 245 % of control | T/C (dose: 4.0 mg/kg/injection, schedule: Q01DX005 (ip), vehicle: saline + alcohol): 129 and 142 % of control | T/C (dose: 5.0 mg/kg/injection, schedule: Q01DX005 (ip), vehicle: saline with Tween-80): 137 % of control | T/C (dose: 8.0 mg/kg/injection, schedule: Q01DX001 (ip), vehicle: saline with Tween-80): 97, 111, 125, 131, 133, 140 % of control | T/C (dose: 8.0 mg/kg/injection, schedule: Q01DX001 (ip), vehicle: saline): 129 % of control | T/C (dose: 10.0 mg/kg/injection, schedule: Q01DX001 (ip), vehicle: alcohol): 135 % of control | T/C (dose: 15.0 mg/kg/injection, schedule: Q01DX001 (ip), vehicle: saline + alcohol): 147 % of control | T/C (dose: 16.0 mg/kg/injection, schedule: Q01DX001 (ip), vehicle: saline with Tween-80): 108, 139, 156, 175, 190, 210 % of control [8 of 10 alive] | T/C (dose: 16.0 mg/kg/injection, schedule: Q01DX001 (ip), vehicle: saline): 137 % of control | survivor count (dose: 16.0 mg/kg/injection, schedule: Q01DX005 (ip), vehicle: saline + alcohol): 10 of 10 | survivor count [1]: 9 of 10 | survivor count (dose: 16.0 mg/kg/injection, schedule: Q01DX009 (ip), vehicle: saline with Tween-80): 9 of 10 | T/C (dose: 20.0 mg/kg/injection, schedule: Q01DX005 (ip), vehicle: saline with Tween-80): 126 % of control | T/C (dose: 32.0 mg/kg/injection, schedule: Q01DX001 (ip), vehicle: saline with Tween-80): 207, 220, 254, 300 (2×), 300 % of control [9 of 10 alive] | survivor count (dose: 40.0 mg/kg/injection, schedule: Q01DX005 (ip), vehicle: saline with Tween-80): 10 of 10 | T/C [2]: 300 % of control | survivor count [2]: 8 of 10 and 10 of 10 | survivor count [3]: 10 of 10 on day 14 | survivor count (dose: 80.0 mg/kg/injection, schedule: Q01DX001 (ip), vehicle: alcohol): 10 of 10 | survivor count (dose: 80.0 mg/kg/injection, schedule: Q01DX001 (ip), vehicle: saline with Tween-80): 5 of 10 | survivor count (dose: 80.0 mg/kg/injection, schedule: Q01DX005 (ip), vehicle: saline with Tween-80): 9 of 10 | survivor count (dose: 160.0 mg/kg/injection, schedule: Q01DX001 (ip), vehicle: alcohol): 10 of 10 | survivor count (dose: 320.0 mg/kg/injection, schedule: Q01DX001 (ip), vehicle: alcohol): 9 of 10

Cc1ncc(CO)c(C)c1O
T/C (dose: 128.0 mg/kg/injection, schedule: Q01DX001 (ip), vehicle: Klucel (hydroxypropylcellulose) (HPC)): 103 [survivors not given], 105, 106 [survivors not given], 111 % of control [survivors not given] | T/C (dose: 256.0 mg/kg/injection, schedule: Q01DX001 (ip), vehicle: Klucel (hydroxypropylcellulose) (HPC)): 91 [survivors not given], 92 [survivors not given], 95 [survivors not given], 107 % of control | survivor count (dose: 512.0 mg/kg/injection, schedule: Q01DX001 (ip), vehicle: Klucel (hydroxypropylcellulose) (HPC)): 3 of 10 | survivor count [4]: 0 of 10 | survivor count (dose: 1024.0 mg/kg/injection, schedule: Q01DX001 (ip), vehicle: Klucel (hydroxypropylcellulose) (HPC)): 0 of 10 | survivor count (dose: 1024.0 mg/kg/injection, schedule: Q01DX005 (ip), vehicle: Klucel (hydroxypropylcellulose) (HPC)): 0 of 10

COS(C)(=O)=O
T/C [5]: 126 % of control | T/C [6]: 97 [survivors not given], 104 [survivors not given], 105 [survivors not given], 109 % of control | T/C [3]: 95 [survivors not given], 99 [survivors not given], 106, 109 % of control [survivors not given] | T/C [7]: 103 [survivors not given], 104 [survivors not given], 111, 112 % of control [survivors not given] | T/C [8]: 114 [survivors not given], 117 [survivors not given], 137 % of control [6 of 10 alive]

O=P1(N(CCCl)CCCl)NCCCO1 (stereo unspecified)
T/C (dose: 80.0 mg/kg/injection, schedule: Q01DX001 (ip), vehicle: saline): 129 % of control | T/C (dose: 160.0 mg/kg/injection, schedule: Q01DX001 (ip), vehicle: saline): 126 % of control | survivor count (dose: 640.0 mg/kg/injection, schedule: Q01DX001 (ip), vehicle: saline): 3 of 10

Nc1ccc(S(=O)(=O)c2ccc(N)cc2)cc1
survivor count (dose: 200.0 mg/kg/injection, schedule: Q01DX005 (ip), vehicle: saline with Tween-80): 4 of 10 | survivor count (dose: 400.0 mg/kg/injection, schedule: Q01DX005 (ip), vehicle: saline with Tween-80): 0 of 10

O=NN(CCF)C(=O)NC1C(O)CCCC1O (stereo unspecified)
T/C (dose: 21.6 mg/kg/injection, schedule: Q01DX001 (ip), vehicle: saline): 141 % of control | survivor count [9]: 8 of 10 on day 6

CN(Cc1cnc2nc(N)nc(N)c2n1)c1c(Cl)cc(C(=O)NC(CCC(=O)O)C(=O)O)cc1Cl (stereo unspecified)
T/C [6]: 95, 99 [survivors not given] (2×), 112 % of control [survivors not given] | T/C [3]: 97 [survivors not given], 100 [survivors not given], 103, 109 % of control [survivors not given] | T/C [7]: 95, 98 [survivors not given], 107 [survivors not given], 109 % of control [survivors not given] | T/C [8]: 98, 99 [survivors not given], 107 [survivors not given], 109 % of control [survivors not given] | survivor count [10]: 9 of 10 and 10 of 10 | survivor count [4]: 8 of 10

N[C@@H](Cc1ccc(N(CCCl)CCCl)cc1)C(=O)O
T/C [5]: 139 % of control | survivor count [5]: 9 of 10 | survivor count (dose: 16.0 mg/kg/injection, schedule: Q01DX005 (ip), vehicle: saline): 9 of 10 | survivor count (dose: 32.0 mg/kg/injection, schedule: Q01DX005 (ip), vehicle: saline): 7 of 10

CCC(C)N(C)/N=N/c1nc[nH]c1C(N)=O (stereo unspecified)
T/C [1]: 143 % of control | survivor count [10]: 0 of 10

CCCCN(C)N=Nc1c(C(N)=O)n[nH]c1C
T/C [1]: 141 % of control | T/C (dose: 32.0 mg/kg/injection, schedule: Q01DX005 (ip), vehicle: saline with Tween-80): 148 % of control | survivor count (dose: 128.0 mg/kg/injection, schedule: Q01DX005 (ip), vehicle: saline with Tween-80): 7 of 10 | survivor count [10]: 4 of 10

COc1cc2cc3c4cc(OC)c(OC)cc4cc[n+]3c(C)c2cc1OC (tested in a mixture with another compound)
survivor count (dose: 128.0 mg/kg/injection, schedule: Q01DX005 (ip), vehicle: saline): 8 of 10 | survivor count (dose: 256.0 mg/kg/injection, schedule: Q01DX005 (ip), vehicle: saline): 0 of 10 and 1 of 10

O=NN(CCF)C(=O)NC1CCCCC1
survivor count [9]: 7 of 10 on day 6 | survivor count (dose: 162.8 mg/kg/injection, schedule: Q01DX001 (ip), vehicle: other): 8 of 10

CCCCCCC1CC1C(=O)NCCCCCN=C(N)N (stereo unspecified)
survivor count (dose: 80.0 mg/kg/injection, schedule: Q01DX005 (ip), vehicle: Klucel (hydroxypropylcellulose) (HPC)): 1 of 10
